Measured values from the supplement of paper PMC10849652.
This is one part of the list.

Sequences of proteins named here, by UniProt entry; tags and fusion partners are left off. A change or cut given only in a name is not applied to a line headed by its entry.
UniProt Q86WR0: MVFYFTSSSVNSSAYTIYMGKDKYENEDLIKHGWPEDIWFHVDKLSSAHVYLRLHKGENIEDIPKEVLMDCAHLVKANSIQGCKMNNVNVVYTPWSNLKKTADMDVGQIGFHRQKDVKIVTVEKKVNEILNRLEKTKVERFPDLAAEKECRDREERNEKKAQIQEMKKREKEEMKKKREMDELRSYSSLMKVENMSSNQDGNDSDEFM
UniProt Q99832: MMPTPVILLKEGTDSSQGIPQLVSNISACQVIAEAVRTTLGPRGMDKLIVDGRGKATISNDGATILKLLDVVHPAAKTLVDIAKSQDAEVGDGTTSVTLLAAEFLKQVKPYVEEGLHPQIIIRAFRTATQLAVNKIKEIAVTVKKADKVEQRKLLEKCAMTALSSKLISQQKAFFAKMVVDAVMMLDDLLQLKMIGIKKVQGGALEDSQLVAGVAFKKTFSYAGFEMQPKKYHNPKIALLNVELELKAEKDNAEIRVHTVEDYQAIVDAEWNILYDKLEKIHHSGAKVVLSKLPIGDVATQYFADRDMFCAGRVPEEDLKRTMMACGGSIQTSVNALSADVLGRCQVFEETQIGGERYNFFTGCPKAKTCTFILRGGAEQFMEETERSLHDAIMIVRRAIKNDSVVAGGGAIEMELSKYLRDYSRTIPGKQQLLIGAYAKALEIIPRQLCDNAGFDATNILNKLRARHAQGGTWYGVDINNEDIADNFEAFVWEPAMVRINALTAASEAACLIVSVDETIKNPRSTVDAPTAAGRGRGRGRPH
UniProt Q96F63: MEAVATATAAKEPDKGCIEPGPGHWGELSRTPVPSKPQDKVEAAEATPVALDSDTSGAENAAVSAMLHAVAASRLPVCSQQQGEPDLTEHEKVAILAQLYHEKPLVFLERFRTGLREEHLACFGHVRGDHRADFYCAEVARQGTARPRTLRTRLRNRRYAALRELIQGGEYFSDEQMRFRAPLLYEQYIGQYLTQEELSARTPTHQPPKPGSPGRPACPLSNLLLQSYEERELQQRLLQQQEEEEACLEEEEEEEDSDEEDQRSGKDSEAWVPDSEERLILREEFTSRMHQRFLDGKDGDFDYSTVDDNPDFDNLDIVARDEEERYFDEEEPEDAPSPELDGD
UniProt Q9GZT6: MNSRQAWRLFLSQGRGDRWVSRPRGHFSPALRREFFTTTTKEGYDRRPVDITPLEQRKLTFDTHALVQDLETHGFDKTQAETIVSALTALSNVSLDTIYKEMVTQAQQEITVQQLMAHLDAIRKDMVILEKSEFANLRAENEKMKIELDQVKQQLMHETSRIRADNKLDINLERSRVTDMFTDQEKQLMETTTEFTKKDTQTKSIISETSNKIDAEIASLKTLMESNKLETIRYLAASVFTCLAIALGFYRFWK
UniProt O15446, whole entry, looked up: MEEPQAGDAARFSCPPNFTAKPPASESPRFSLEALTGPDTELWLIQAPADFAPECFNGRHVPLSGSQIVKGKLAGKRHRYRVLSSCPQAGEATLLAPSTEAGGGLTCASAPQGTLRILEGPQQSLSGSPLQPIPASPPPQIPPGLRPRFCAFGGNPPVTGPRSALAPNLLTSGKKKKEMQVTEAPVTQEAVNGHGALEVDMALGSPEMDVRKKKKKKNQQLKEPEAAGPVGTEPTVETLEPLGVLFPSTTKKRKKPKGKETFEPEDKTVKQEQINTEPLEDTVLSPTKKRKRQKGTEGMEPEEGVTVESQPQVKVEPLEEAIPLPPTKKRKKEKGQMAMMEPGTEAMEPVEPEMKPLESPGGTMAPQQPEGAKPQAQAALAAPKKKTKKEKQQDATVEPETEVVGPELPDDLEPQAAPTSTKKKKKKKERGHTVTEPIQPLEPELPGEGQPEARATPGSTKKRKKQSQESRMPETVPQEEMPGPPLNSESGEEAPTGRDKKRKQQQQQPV
UniProt Q08722, whole entry, looked up: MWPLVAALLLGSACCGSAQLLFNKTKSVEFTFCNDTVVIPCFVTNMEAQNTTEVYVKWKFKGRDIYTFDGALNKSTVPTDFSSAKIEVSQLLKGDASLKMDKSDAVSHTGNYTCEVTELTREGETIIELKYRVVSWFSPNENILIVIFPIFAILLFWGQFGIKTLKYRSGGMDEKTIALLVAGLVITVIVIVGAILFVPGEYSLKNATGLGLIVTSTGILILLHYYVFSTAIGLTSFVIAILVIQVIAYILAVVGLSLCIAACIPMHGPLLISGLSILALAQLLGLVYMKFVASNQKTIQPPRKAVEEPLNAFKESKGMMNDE
UniProt P30260, whole entry, looked up: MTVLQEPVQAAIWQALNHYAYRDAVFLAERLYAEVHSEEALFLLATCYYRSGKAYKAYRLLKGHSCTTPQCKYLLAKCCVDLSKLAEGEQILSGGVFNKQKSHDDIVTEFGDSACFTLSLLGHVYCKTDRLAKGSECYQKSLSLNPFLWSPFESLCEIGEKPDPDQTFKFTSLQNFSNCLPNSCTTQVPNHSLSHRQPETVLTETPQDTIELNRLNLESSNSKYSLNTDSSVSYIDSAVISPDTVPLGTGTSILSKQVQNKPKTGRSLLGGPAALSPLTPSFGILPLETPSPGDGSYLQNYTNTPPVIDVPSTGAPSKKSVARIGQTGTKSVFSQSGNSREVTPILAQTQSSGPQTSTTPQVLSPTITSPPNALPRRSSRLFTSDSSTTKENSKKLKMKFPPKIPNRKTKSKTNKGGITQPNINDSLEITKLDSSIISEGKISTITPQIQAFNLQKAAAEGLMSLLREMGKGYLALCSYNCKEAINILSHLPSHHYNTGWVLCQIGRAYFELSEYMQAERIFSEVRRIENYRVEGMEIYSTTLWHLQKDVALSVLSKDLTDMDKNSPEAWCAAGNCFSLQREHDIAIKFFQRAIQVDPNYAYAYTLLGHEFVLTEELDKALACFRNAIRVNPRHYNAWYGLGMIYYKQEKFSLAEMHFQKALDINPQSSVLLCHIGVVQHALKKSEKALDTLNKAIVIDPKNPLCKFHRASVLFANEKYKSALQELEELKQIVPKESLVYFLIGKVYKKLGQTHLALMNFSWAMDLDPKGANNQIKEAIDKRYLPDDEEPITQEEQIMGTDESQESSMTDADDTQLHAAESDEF
UniProt Q9P031: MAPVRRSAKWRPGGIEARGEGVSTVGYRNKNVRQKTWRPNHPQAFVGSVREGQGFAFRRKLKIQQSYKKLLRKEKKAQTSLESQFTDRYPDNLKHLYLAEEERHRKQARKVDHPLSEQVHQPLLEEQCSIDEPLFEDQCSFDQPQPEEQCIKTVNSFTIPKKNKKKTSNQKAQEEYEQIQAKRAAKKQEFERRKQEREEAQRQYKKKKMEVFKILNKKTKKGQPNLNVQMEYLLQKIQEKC
UniProt P51946: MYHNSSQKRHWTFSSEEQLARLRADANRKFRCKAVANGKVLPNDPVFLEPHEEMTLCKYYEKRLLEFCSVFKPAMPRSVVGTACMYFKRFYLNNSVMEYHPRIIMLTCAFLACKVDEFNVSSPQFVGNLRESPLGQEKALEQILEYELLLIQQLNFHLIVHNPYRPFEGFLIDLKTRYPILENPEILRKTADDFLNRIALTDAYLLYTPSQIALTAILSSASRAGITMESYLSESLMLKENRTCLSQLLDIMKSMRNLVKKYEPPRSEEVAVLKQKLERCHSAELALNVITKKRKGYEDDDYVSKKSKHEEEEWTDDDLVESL
UniProt Q9H6E4: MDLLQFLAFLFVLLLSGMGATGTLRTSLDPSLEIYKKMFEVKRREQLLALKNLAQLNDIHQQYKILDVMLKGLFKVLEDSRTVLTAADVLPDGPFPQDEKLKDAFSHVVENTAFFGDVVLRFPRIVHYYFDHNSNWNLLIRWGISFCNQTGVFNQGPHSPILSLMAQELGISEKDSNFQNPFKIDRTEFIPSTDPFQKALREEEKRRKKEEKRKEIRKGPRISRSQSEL
UniProt P45973, whole entry, looked up: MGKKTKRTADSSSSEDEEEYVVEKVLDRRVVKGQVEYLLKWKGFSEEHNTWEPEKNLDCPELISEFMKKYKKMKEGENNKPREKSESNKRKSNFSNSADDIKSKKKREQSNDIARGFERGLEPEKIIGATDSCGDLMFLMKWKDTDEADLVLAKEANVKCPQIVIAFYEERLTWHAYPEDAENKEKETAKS
UniProt P42574: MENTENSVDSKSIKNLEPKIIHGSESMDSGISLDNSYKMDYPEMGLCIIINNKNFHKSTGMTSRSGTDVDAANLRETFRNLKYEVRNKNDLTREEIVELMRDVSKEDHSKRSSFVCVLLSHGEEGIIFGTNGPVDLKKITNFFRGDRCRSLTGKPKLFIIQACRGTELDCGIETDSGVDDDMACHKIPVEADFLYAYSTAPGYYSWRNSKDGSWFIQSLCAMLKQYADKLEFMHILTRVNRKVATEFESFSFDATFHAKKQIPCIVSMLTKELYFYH
UniProt Q8N4S0: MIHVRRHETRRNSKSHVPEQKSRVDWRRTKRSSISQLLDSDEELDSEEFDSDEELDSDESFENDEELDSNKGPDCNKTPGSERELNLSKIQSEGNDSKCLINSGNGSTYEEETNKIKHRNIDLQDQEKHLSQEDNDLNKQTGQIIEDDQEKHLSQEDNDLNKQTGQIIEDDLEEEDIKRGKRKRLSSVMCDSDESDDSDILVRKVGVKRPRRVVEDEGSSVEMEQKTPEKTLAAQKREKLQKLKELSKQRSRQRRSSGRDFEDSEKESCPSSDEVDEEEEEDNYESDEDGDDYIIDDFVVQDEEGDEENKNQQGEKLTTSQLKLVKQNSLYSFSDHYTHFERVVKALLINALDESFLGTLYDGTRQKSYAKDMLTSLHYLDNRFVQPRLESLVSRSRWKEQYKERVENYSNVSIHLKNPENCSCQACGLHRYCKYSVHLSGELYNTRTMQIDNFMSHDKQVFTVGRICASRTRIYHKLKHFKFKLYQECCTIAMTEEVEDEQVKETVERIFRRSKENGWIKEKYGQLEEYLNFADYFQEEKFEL
UniProt Q8ND76: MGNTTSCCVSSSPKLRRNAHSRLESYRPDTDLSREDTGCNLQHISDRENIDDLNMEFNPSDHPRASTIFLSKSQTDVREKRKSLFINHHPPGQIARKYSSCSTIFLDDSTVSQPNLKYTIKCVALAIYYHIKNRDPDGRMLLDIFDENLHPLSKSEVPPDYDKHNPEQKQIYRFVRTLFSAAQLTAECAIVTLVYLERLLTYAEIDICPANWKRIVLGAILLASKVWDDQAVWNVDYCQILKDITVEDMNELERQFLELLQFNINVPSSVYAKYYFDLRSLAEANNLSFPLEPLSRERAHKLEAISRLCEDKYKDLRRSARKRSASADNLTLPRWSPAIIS
UniProt P49368: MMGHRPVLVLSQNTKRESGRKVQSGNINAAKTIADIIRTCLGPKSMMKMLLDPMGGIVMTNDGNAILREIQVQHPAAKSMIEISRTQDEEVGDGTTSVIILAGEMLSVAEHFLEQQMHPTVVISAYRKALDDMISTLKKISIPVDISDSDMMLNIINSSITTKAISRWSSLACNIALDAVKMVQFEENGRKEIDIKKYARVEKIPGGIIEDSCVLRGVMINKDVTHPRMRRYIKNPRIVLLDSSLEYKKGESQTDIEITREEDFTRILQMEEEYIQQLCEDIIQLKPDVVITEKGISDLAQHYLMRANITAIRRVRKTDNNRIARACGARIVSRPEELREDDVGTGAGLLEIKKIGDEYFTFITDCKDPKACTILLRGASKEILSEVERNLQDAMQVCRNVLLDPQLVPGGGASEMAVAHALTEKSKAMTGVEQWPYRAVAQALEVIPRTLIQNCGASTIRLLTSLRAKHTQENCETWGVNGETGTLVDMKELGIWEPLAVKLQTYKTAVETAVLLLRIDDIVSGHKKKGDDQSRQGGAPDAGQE
UniProt Q8TCZ2: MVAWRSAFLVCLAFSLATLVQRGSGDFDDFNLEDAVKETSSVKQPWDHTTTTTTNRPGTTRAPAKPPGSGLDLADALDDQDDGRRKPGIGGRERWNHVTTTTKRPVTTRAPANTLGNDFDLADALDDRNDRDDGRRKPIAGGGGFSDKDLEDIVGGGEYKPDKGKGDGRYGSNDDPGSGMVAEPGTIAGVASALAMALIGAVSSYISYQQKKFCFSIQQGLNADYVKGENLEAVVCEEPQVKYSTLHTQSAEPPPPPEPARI
UniProt Q96NT0: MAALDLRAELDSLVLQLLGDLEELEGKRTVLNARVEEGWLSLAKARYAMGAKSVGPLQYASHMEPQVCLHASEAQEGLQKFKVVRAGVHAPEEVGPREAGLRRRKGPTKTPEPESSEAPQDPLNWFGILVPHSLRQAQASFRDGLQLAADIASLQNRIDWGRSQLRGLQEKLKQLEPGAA
UniProt P19256, whole entry, looked up: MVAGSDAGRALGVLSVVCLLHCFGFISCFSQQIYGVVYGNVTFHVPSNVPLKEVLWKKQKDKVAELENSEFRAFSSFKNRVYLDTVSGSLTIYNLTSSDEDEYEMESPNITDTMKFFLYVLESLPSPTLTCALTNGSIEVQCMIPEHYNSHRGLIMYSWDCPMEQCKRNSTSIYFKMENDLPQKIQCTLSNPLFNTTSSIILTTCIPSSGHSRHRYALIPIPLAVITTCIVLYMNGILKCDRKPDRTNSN
UniProt Q13185: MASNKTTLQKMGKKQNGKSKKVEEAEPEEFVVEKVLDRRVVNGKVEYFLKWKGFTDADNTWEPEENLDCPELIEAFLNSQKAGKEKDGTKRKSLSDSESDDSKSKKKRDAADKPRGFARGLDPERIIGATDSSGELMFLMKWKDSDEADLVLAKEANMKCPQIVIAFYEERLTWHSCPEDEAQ

Each target was assayed with Cc1sc2c(c1C)C(c1ccc(Cl)cc1)=N[C@@H](CC(=O)OC(C)(C)C)c1nnc(C)n1-2 (assay: log2 fold change, soluble protein after heating vs DMSO (PISA); higher = thermal stabilisation; K562 cells, 10 uM, 30 min; active = over 0.2 and 3.5 SD of the protein, either way, in both replicates (recomputed)).
Method in brief: (§1)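 K562 cells (2×10^6 cells/mL) were treated with 10 μM compound for 30 min, and aliquots were heated for 3 min over 48°C-58°C. Pooled aliquots were extracted in PBS with 0.5% NP-40 at 4°C, and the supernatant after 21,000xg for 90 min was measured by TMTpro 16plex LC-MS/MS with channel sums equalised. Reported thermal stability, relative to control samples and from duplicates, is a log2 fold change.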
For CCDC25 (UniProt Q86WR0), the log2 fold change was inactive: 0.01. With CCDC32 isoform 2 (UniProt Q9BV29) the log2 fold change was inactive: 0.005. With CCT7 (UniProt Q99832) the log2 fold change was inactive: -0.022. With CAT (UniProt P04040) the log2 fold change was inactive: -0.021. With CCDC97 (UniProt Q96F63) the log2 fold change was inactive: 0.071. For CCDC90B (UniProt Q9GZT6), the log2 fold change was inactive: -0.078. For CD3EAP isoform 2 (UniProt O15446), the log2 fold change was inactive: 0.103. CCDC137 (UniProt Q6PK04) was tested, and the log2 fold change was inactive: 0.323. For CCAR2 isoform 2 (UniProt Q8N163), the log2 fold change was inactive: -0.089. CD47 (UniProt Q08722) was tested, and the log2 fold change was inactive: 0.006. In the case of CDC27 isoform 2 (UniProt P30260), the log2 fold change is reported as inactive: 0.006. In the case of CC2D1B isoform 2 (UniProt Q5T0F9), the log2 fold change is reported as inactive: 0.011. For CCDC124 (UniProt Q96CT7), the log2 fold change was inactive: 0.035. CCDC59 (UniProt Q9P031) was tested, and the log2 fold change was inactive: 0.165. CCNH (UniProt P51946) was tested, and the log2 fold change was inactive: 0.002. CCZ1 (UniProt P86791) was tested, and the log2 fold change was inactive: 0.017. In the case of CCDC134 (UniProt Q9H6E4), the log2 fold change is reported as inactive: 0.014. For CBX5 (UniProt P45973), the log2 fold change was inactive: 0.016. In the case of CASP3 (UniProt P42574), the log2 fold change is reported as inactive: -0.055. For CD151 (UniProt P48509), the log2 fold change was inactive: -0.046. In the case of CCNA2 (UniProt P20248), the log2 fold change is reported as inactive: 0.007. With CCDC82 (UniProt Q8N4S0) the log2 fold change was inactive: 0.043. For CCNY (UniProt Q8ND76), the log2 fold change was inactive: 0.14. In the case of CCT3 (UniProt P49368), the log2 fold change is reported as inactive: 0. CD99L2 isoform 5 (UniProt Q8TCZ2) was tested, and the log2 fold change was inactive: -0.059. For CCDC115 (UniProt Q96NT0), the log2 fold change was inactive: 0.012. For CD58 (UniProt P19256), the log2 fold change was inactive: -0.026. With CCDC47 (UniProt Q96A33) the log2 fold change was inactive: -0.013. For CDC37 (UniProt Q16543), the log2 fold change was inactive: 0. In the case of CBX3 (UniProt Q13185), the log2 fold change is reported as inactive: -0.002.

Each target was assayed with c1ccc([C@@H]2C[C@H]2NC2CCNCC2)cc1 in the same assay as above.
Method in brief: as §1
CCDC25 (UniProt Q86WR0) was tested, and the log2 fold change was inactive: -0.012. In the case of CCDC32 isoform 2 (UniProt Q9BV29), the log2 fold change is reported as inactive: 0.047. With CCT7 (UniProt Q99832) the log2 fold change was inactive: 0.002. In the case of CAT (UniProt P04040), the log2 fold change is reported as inactive: 0.019. For CCDC97 (UniProt Q96F63), the log2 fold change was inactive: 0.022. CCDC90B (UniProt Q9GZT6) was tested, and the log2 fold change was inactive: -0.024. In the case of CD3EAP isoform 2 (UniProt O15446), the log2 fold change is reported as inactive: 0.052. CCDC137 (UniProt Q6PK04) was tested, and the log2 fold change was inactive: 0.009. With CCAR2 isoform 2 (UniProt Q8N163) the log2 fold change was inactive: 0.011. With CD47 (UniProt Q08722) the log2 fold change was inactive: 0.026. CDC27 isoform 2 (UniProt P30260) was tested, and the log2 fold change was inactive: -0.013. In the case of CC2D1B isoform 2 (UniProt Q5T0F9), the log2 fold change is reported as inactive: -0.032. With CCDC124 (UniProt Q96CT7) the log2 fold change was inactive: -0.001. For CCDC59 (UniProt Q9P031), the log2 fold change was inactive: 0.052. With CCNH (UniProt P51946) the log2 fold change was inactive: 0.033. For CCZ1 (UniProt P86791), the log2 fold change was inactive: -0.024. CCDC134 (UniProt Q9H6E4) was tested, and the log2 fold change was inactive: 0.002. In the case of CBX5 (UniProt P45973), the log2 fold change is reported as inactive: 0.008. CASP3 (UniProt P42574) was tested, and the log2 fold change was inactive: 0.003. For CD151 (UniProt P48509), the log2 fold change was inactive: 0.101. CCNA2 (UniProt P20248) was tested, and the log2 fold change was inactive: 0.058. CCDC82 (UniProt Q8N4S0) was tested, and the log2 fold change was inactive: 0.004. With CCNY (UniProt Q8ND76) the log2 fold change was inactive: 0.06. For CCT3 (UniProt P49368), the log2 fold change was inactive: -0.013. With CD99L2 isoform 5 (UniProt Q8TCZ2) the log2 fold change was inactive: 0.025. In the case of CCDC115 (UniProt Q96NT0), the log2 fold change is reported as inactive: 0.032. With CD58 (UniProt P19256) the log2 fold change was inactive: -0.033. In the case of CCDC47 (UniProt Q96A33), the log2 fold change is reported as inactive: -0.005. CDC37 (UniProt Q16543) was tested, and the log2 fold change was inactive: -0.027. For CBX3 (UniProt Q13185), the log2 fold change was inactive: 0.019.
